Residue numbers refer to the chain shown, from its start. These are yes or no findings as the source states them, for the method shown. Binding seen in cells or lysates may run through a third protein. Some entries that bind do so weakly or less than the wild type. Tags and fused reporters may be left off the sequences shown. Values belong to the binder of their own block, whether it stands above or below them.
Target: GST-OPTN (UniProt Q96CV9)
Test: pull-down; GST-OPTN from E. coli as bait, incubated with whole cell lysates of HEK293T cells transfected with GFP-TBK1 (wild type or p.Ile334Thr); GST Protein Interaction Pull-Down Kit (Thermo Scientific #21516); bound proteins detected by western blotting; only the target purified

Protein sequences, listed by entry. Tags and fused reporters are not part of them.
UniProt Q96CV9: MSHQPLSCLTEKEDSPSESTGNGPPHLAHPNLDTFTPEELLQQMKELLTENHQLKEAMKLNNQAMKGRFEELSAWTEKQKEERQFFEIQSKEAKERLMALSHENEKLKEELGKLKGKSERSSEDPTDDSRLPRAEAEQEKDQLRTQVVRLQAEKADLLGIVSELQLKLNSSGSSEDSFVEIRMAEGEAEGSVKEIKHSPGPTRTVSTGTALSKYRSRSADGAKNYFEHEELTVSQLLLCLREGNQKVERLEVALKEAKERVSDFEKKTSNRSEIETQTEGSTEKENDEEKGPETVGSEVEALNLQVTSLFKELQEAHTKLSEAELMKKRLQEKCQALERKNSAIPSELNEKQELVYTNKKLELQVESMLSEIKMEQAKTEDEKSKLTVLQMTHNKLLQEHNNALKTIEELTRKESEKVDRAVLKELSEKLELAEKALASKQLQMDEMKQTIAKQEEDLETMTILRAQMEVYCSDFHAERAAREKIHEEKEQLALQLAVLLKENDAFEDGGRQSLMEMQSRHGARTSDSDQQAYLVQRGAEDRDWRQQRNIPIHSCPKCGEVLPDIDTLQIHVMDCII

binding: binds
B1: GFP-tagged wild-type human TBK1 (enzyme, UniProt Q9UHD2 1-729)
chain: MQSTSNHLWLLSDILGQGATANVFRGRHKKTGDLFAIKVFNNISFLRPVDVQMREFEVLKKLNHKNIVKLFAIEEETTTRHKVLIMEFCPCGSLYTVLEEPSNAYGLPESEFLIVLRDVVGGMNHLRENGIVHRDIKPGNIMRVIGEDGQSVYKLTDFGAARELEDDEQFVSLYGTEEYLHPDMYERAVLRKDHQKKYGATVDLWSIGVTFYHAATGSLPFRPFEGPRRNKEVMYKIITGKPSGAISGVQKAENGPIDWSGDMPVSCSLSRGLQVLLTPVLANILEADQEKCWGFDQFFAETSDILHRMVIHVFSLQQMTAHKIYIHSYNTATIFHELVYKQTKIISSNQELIYEGRRLVLEPGRLAQHFPKTTEENPIFVVSREPLNTIGLIYEKISLPKVHPRYDLDGDASMAKAITGVVCYACRIASTLLLYQELMRKGIRWLIELIKDDYNETVHKKTEVVITLDFCIRNIEKTVKVYEKLMKINLEAAELGEISDIHTKLLRLSSSQGTIETSLQDIDSRLSPGGSLADAWAHQEGTHPKDRNVEKLQVLLNCMTEIYYQFKKDKAERRLAYNEEQIHKFDKQKLYYHATKAMTHFTDECVKKYEAFLNKSEEWIRKMLHLRKQLLSLTNQCFDIEEEVSKYQEYTNELQETLPQKMFTASSGIKHTMTPIYPSSNTLVEMTLGMKKLKEEMEGVVKELAENNHILERFGSLTMDGGLRNVDCL

binding: binds
B2: GFP-tagged p.Ile334Thr TBK1 (enzyme, UniProt Q9UHD2 1-729)
chain: B1 chain with I334T
